Patent US20090143319

Amino acid sequences for entries named in this document (tags omitted).
UniProt Q04206, whole entry: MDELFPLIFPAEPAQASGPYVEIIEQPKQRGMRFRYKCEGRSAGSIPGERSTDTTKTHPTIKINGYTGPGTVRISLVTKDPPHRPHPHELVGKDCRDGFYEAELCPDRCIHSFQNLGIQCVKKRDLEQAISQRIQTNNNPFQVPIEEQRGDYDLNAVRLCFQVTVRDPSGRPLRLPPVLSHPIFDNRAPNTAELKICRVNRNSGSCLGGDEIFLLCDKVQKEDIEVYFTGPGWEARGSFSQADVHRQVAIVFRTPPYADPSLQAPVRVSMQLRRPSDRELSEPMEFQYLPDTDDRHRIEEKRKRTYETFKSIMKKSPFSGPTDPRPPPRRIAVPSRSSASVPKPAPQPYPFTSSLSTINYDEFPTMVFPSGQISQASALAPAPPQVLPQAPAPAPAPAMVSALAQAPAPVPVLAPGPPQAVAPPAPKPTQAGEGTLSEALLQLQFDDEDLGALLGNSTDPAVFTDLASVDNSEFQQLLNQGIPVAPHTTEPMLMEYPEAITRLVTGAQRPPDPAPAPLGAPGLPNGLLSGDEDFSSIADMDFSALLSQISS

Target: NF-kB p65 (RelA) (UniProt Q04206)
Test: competition with a labelled probe
Conditions: protein in an extract, variant of SEQ-I

For CCTTGAGGGGATTTCCCCCC [SEQ-42], the binding signal (IC50 ratio to SEQ-x) (dAOMe (-): C-C-T-T-G-A-G-GGGATTTCCC-C-C-C / 3'-G-G-A-A-C-U-C-CCCTAAAGGG-G-G-G) was > 2.93.
CCUTGAGGGGATTTCCCCCC [SEQ-10] showed a binding signal (IC50 ratio to SEQ-x) (2'-OMe at CCU and last CCC of sense, GGA (3' end) and GGG (5' end) of antisense) of 1.72.
With CCUUGAGGGGATTTCCCCCC [SEQ-11] the binding signal (IC50 ratio to SEQ-x) (2'-OMe at CCUUGAG and last CCC of sense, 3'-GGAACUC and 5'-end GGG of antisense) was > 4.18.

For at least one entry, the source does not settle the construct or the ends of the probe. Results from cells or extracts need not show a direct contact. Whether high values mean tight binding is not given here for every scale.
